Laboratory results as given in PubChem BioAssay AID2685 (National Center for Advancing Translational Sciences (NCATS), 2010).
The other results are listed elsewhere or left out. The main result of the screen is listed elsewhere. These columns were measured beside it and carry no call. Compounds called inactive in the main read-out are mostly missing here. The note in brackets gives the kind of curve behind each potency; many fits are weak.

Assay: qHTS Assay for Lipid Storage Modulators in Drosophila S3 Cells;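 as to cell number change: cells counted by Cell Tracker Red CMTPX staining in the red channel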
Conditions: BODIPY lipid droplet fluorescence, 18-24 h; for cell number change: measured here: cell count max response, cells fed with added oleic acid
Summary of the method: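 Laser-scanning cytometry quantifies lipid droplet accumulation (500–530 nm total intensity; droplet/cell object ratio) in oleic acid-fed (400 uM added) Drosophila S3 cells treated with a concentration series. 20 uM Triacsin C defined 100% inhibition.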

[1] = measured here: lipid fluorescence (Fed channel) AC50, cells fed with added oleic acid
[2] = measured here: cell number channel AC50, cells fed with added oleic acid

Row | Compound | cell number change | AC50 [1] | AC50 [2]
1 | CCn1cc(C(=O)NCC(OC)OC)c(=O)c2cc(S(=O)(=O)N3CCC(C)CC3)ccc21 | 0.763% | – | –
2 | Cc1ccc(S(=O)(=O)N(CC(=O)N2CCCCCC2)c2ccccc2F)cc1 | -6.41% | – | –
3 | COc1ccc(NS(=O)(=O)c2ccc(N3CCCC3)c(N)c2)cc1 | 6.58% | – | –
4 | CCCN(CCC)C(=O)CC(c1ccccc1)c1cc(Br)ccc1O (stereo not given) | -26.4% | 2.31 µM [rising, partial curve, poor fit] | –
5 | COc1ccc(Cc2nnc(NC(=O)CSc3ccccc3)s2)cc1OC | – | – | 0.92 µM [rising, full curve, poor fit]
6 | Cc1ccc(NC(=O)Cc2c(Cl)cccc2Cl)cc1S(=O)(=O)N(C)C | -29% | 18.4 µM [falling, single point] | 0.651 µM [falling, full curve, poor fit]
7 | COc1ccc(-c2cc(C(F)(F)F)n3ncc(C(=O)N4CCCCC4c4cccnc4)c3n2)cc1 (stereo not given) | 31.8% | 13 µM [rising, partial curve] | 1.64 µM [rising, partial curve]
8 | Cc1cc(OCC(=O)Nc2ccc(CN3CCOCC3)cc2)c2c(C)c(C)c(=O)oc2c1 | 11.6% | – | –
9 | COc1ccc(C/C(C)=N/NC(=S)Nc2ccccc2)cc1 | -15.6% | 0.13 µM [rising, full curve, poor fit] | 0.00461 µM [rising, full curve, poor fit]
10 | CC(Sc1nnc2ccccn12)C(=O)N1CCc2ccccc2C1 (stereo not given) | 57.1% | – | 16.4 µM [rising, single point]
11 | CC(C)CN(C(=O)COC(=O)c1cncc(Br)c1)c1c(N)n(Cc2ccccc2)c(=O)[nH]c1=O | 59.9% | – | 28.2 µM [rising, single point]
12 | NS(=O)(=O)c1ccc(NS(=O)(=O)c2ccc(NC(=O)c3ccc(-c4ccccc4)cc3)cc2)cc1 | 11.7% | 29.1 µM [falling, single point] | –
13 | CCc1nnc(NC(=O)CSc2nnc(-c3cccnc3)n2C)s1 | -24.9% | 3.26 µM [falling, partial curve, poor fit] | 0.146 µM [falling, full curve]
14 | CCOC(=O)NC(=S)Nc1c(C)n(C)n(-c2ccccc2)c1=O | -28.6% | 0.501 µM [falling, full curve, poor fit] | 0.398 µM [falling, full curve, poor fit]
15 | Cc1ccc(CNC(=O)CCC(=O)c2cccs2)cc1 | -12.6% | 0.13 µM [falling, full curve, poor fit] | –
16 | CC(Sc1nncn1C)C(=O)Nc1nnc(-c2ccccc2)s1 (stereo not given) | 21.6% | 13 µM [rising, single point] | –
17 | CCCCN1C(=O)c2ccc(C(=O)NC3(C)CCS(=O)(=O)C3)cc2C1=O (stereo not given) | 36.3% | – | 0.731 µM [rising, full curve, poor fit]
18 | CCNc1ccc(C(=O)OC(C(=O)NC(N)=O)C(C)C)cc1[N+](=O)[O-] (stereo not given) | -21.3% | – | –
19 | COc1ccc2cc(C(=O)N3CCc4ccccc43)[nH]c2c1 | 38.7% | 29.1 µM [rising, single point] | 32.6 µM [rising, single point]
20 | CCOc1ccc(NC(=O)CN(C)S(=O)(=O)c2ccc(-c3ccc(=O)[nH]n3)s2)cc1 | 74.9% | 20.6 µM [rising, partial curve] | 23.1 µM [rising, partial curve]

Sorted by length of the SMILES (ascending): part of the list above.
Row | Compound | cell number change | AC50 [1] | AC50 [2]
16 | CC(Sc1nncn1C)C(=O)Nc1nnc(-c2ccccc2)s1 (stereo not given) | 21.6% | 13 µM [rising, single point] | –
5 | COc1ccc(Cc2nnc(NC(=O)CSc3ccccc3)s2)cc1OC | – | – | 0.92 µM [rising, full curve, poor fit]
17 | CCCCN1C(=O)c2ccc(C(=O)NC3(C)CCS(=O)(=O)C3)cc2C1=O (stereo not given) | 36.3% | – | 0.731 µM [rising, full curve, poor fit]

The list goes on:

Row | Compound | cell number change | AC50 [1] | AC50 [2]
21 | CCCCn1c(N)c(N(C)C(=O)c2cc3c(s2)CCCCC3)c(=O)[nH]c1=O | 9.63% | 2.06 µM [rising, partial curve] | –
22 | Cn1cccc1CNC(=S)Nc1ccccc1F | -12.6% | – | –
23 | O=S(=O)(c1ccc(NCCc2c[nH]c3ccccc23)nc1)N1CCOCC1 | -13% | 0.82 µM [rising, single point] | –
24 | CCCC(O)(CCC)C(=O)NN(C(=O)CCl)c1ccccc1 | -13.2% | 16.4 µM [falling, partial curve] | –
25 | O=C(CN1CCN(c2ccccn2)CC1)Nc1ccc(F)cc1 | – | 32.6 µM [rising, single point] | 4.11 µM [rising, single point]
26 | CC(OC(=O)CCSc1ccccc1)C(=O)Nc1ccc(S(N)(=O)=O)cc1 (stereo not given) | -35.6% | 23.1 µM [falling, single point] | 3.66 µM [falling, full curve]
27 | CCCCn1c(N)c(N(CC(C)C)C(=O)c2ccc(Br)s2)c(=O)[nH]c1=O | -33.8% | 11.2 µM [falling, partial curve] | 12.6 µM [falling, single point]
28 | CC(=O)NC1(C(F)(F)F)C(=O)Nc2c1c(=O)[nH]c(=O)n2CCc1ccccc1 (stereo not given) | -27.6% | 5.8 µM [falling, full curve] | –
29 | CC(=O)Nc1ccc(S(=O)(=O)NCc2nc(-c3ccccc3C)no2)cc1 | 13.9% | 29.1 µM [rising, partial curve, poor fit] | –
30 | Cc1ccc(S(=O)(=O)N2CCCC2C(=O)NC2=NCCS2)cc1 (stereo not given) | -0.967% | 14.6 µM [falling, single point] | 0.00517 µM [falling, full curve, poor fit]
31 | N#Cc1ccc(CN2CCN(CC(=O)Nc3ccccc3C(=O)NC3CC3)CC2)cc1 | 0.376% | 6.51 µM [rising, partial curve] | –
32 | CC(Sc1nnc(Nc2ccccc2)s1)C(=O)Nc1nc(-c2ccccc2)cs1 (stereo not given) | -44.1% | – | –
33 | COc1ccccc1CC(=O)c1ccc(OCc2ccccc2)cc1 | -21% | 0.00651 µM [rising, full curve, poor fit] | –
34 | CC(=O)N[C@@H](C)C(=O)N1CCN(S(=O)(=O)c2ccc(Cl)cc2)CC1 | 7.61% | – | –
35 | Nc1c2c(nc3ccc(Br)cc13)N(C1CCCCC1)CC2 | -56% | 29.1 µM [falling, single point] | –
36 | CC(=O)N1CCN(S(=O)(=O)c2ccc(S(=O)(=O)NC3CCCCC3)cc2)CC1 | 14% | 11.6 µM [falling, single point] | 0.366 µM [rising, full curve, poor fit]
37 | Cc1ccc2[nH]c3c(N4CCc5ccccc5C4)ncnc3c2c1 | -67.4% | – | 11.6 µM [falling, partial curve]
38 | CCCn1c2ccccc2c2nnc(SC(CC)C(=O)Nc3sc4c(c3C#N)CCCC4)nc21 (stereo not given) | 60% | 7.31 µM [rising, partial curve] | 4.11 µM [rising, full curve]
39 | O=S1(=O)NC(=NCCc2ccccn2)c2ccccc21 | -35.2% | 25.9 µM [falling, single point] | 9.2 µM [falling, partial curve, poor fit]
40 | Cc1cccc(NC(=S)N2CCC(N(C)CC3CCCO3)CC2)c1 (stereo not given) | 45.3% | 8.2 µM [rising, partial curve] | 8.2 µM [rising, partial curve]

Row | Compound | cell number change | AC50 [1] | AC50 [2]
41 | O=C(N/N=C/c1coc2ccc(Cl)cc2c1=O)c1ccc(O)cc1 | -30.7% | – | 23.1 µM [falling, single point]
42 | CCN(Cc1ccccc1)C(=O)c1ccccc1C | -11.5% | 1.46 µM [falling, partial curve] | –
43 | N#CCc1ccc(OC(=O)Nc2ccccc2)cc1 | -0.874% | 1.16 µM [falling, full curve, poor fit] | –
44 | O=C(Nc1ccc(F)cc1F)c1ccco1 | -53.2% | 0.259 µM [falling, full curve, poor fit] | 29.1 µM [falling, single point]
45 | C(=N\NC1=Nc2cccc3cccc1c23)/c1cccnc1 | -3.66% | – | 0.651 µM [rising, single point]
46 | O=C(COC(=O)c1ccccc1NS(=O)(=O)c1ccc(Cl)cc1)NCc1ccccc1 | 30.4% | – | 7.31 µM [rising, partial curve, poor fit]
47 | Cc1ccc(NC(=O)CC2SC(=NC3CCCCC3)NC2=O)cc1 (stereo not given) | – | 29.1 µM [rising, single point] | –
48 | CCOC(=O)c1cnc2c(Cl)cccc2c1NCCN(C)C | 25.7% | – | –
49 | Cc1ccc(OCC(=O)OC2CCCN(C)C2)cc1 (stereo not given) | -3.22% | 6.51 µM [falling, single point] | –
50 | Cc1ccc(NC(=O)c2ccc(OCC3CCCO3)cc2)nc1 (stereo not given) | -1.19% | – | 0.00411 µM [falling, full curve, poor fit]
51 | Cc1ccc(S(=O)(=O)N2[C@@H](c3ccc(Cl)cc3)C(C(=O)O)=CC[C@H]2c2cccc(C)c2)cc1 | -2.3% | 8.2 µM [falling, single point] | –
52 | O=C1CCC(Cc2ccccc2)N1 (stereo not given) | -25.8% | 29.1 µM [falling, single point] | –
53 | Clc1ccc(OCCn2ccnc2)c(Cl)c1 | 132% | 23.1 µM [rising, partial curve] | 20.6 µM [rising, partial curve]
54 | COc1ccc(S(=O)(=O)N2CCCCCC2)cc1C(=O)NCCc1ccc(F)cc1 | 10% | 32.6 µM [falling, single point] | –
55 | Cc1ccc(S(=O)(=O)CC(=O)N2CC(C)OC(C)C2)cc1 (stereo not given) | -5.93% | – | –
56 | Cc1ccc2c(c1)N(Cc1ccncc1)C(=O)C(C)O2 (stereo not given) | 1.43% | 0.731 µM [rising, full curve, poor fit] | –
57 | O=C(CNC(=O)Cc1ccccc1)NCc1cccc(C(F)(F)F)c1 | -17.1% | – | –
58 | O=C(CSc1nnnn1-c1ccccc1)N1CCCc2ccccc21 | 132% | 4.11 µM [rising, partial curve] | 5.8 µM [rising, full curve]
